We go through two molecules from paper PMC5500802.

The chains behind the UniProt entries cited, without tags or fusion partners. Where a name states a change or a piece, a line headed by the entry shows the natural chain unless it says otherwise.
UniProt P60953: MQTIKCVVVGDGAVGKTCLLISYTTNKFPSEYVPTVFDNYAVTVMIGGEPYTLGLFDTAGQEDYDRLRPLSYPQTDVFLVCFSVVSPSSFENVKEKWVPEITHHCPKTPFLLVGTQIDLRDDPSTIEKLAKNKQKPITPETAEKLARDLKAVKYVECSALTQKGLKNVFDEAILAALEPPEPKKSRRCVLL

No constants are given. Whether binding was seen depends on the method and setting. In cells and extracts the contact can be indirect. For some of these results: A result given as binding can be weak or reduced; the word gives no strength. Where a sequence is shown, tags or fusion partners need not be part of it.

Test [1] addresses T1, GST-ACK GBD wild type, ACK(448-489) (UniProt Q07912).
T1 sequence: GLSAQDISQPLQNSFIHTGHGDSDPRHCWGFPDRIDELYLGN
Put plainly: scintillation proximity assay (competition); 30 nM GST-WT ACK GBD immobilised on protein A SPA fluoromicrospheres via an anti-GST antibody, 30 nM [3H]GTP-Cdc42; increasing concentrations of GST-cleaved ACK variant; pure competition model, apparent Kd (Ki); both purified.

The target in another test is T2, GST-ACK GBD S461A (UniProt Q07912).
T2 sequence: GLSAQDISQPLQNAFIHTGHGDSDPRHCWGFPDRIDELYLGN
Put plainly: condition: Kd > 1 μM (the limit of accurate direct SPA calculations); scintillation proximity assay (direct binding); 20 nM GST-ACK variant immobilised on protein A SPA fluoromicrospheres via an anti-GST antibody; varying concentrations of [3H]GTP-Cdc42; background without effector subtracted; apparent Kd from a direct binding isotherm; both purified.

The next test concerns the target T3, GST-ACK GBD P457A (UniProt Q07912).
T3 sequence: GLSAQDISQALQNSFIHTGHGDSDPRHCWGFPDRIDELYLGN
Described as above.

In another test the target is T4, GST-ACK GBD F462A (UniProt Q07912).
T4 sequence: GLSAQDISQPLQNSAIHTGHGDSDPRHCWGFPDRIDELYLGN
Described as above.

For the next test, the target named is T5, GST-ACK GBD H467A (UniProt Q07912).
T5 sequence: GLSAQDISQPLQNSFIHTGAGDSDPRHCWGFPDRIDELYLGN
Described as above.

For another test, the target named is T6, GST-ACK GBD H464A/H467A (UniProt Q07912).
T6 sequence: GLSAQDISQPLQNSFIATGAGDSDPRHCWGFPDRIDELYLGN
The description is as above.

In the next test the target is T7, GST-ACK GBD I454A (UniProt Q07912).
T7 sequence: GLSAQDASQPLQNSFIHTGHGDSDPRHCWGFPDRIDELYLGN
The test is described as above.

A further test concerns the target T8, GST-ACK GBD H464A (UniProt Q07912).
T8 sequence: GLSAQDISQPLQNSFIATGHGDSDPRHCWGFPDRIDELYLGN
The test is described as above.

The target in a further test is T9, GST-ACK GBD Δ17 (UniProt Q07912).
T9 sequence: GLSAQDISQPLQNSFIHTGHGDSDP
The test is described as above.

The target in a further test is Cdc42 Δ7 Q61L (UniProt P60953). Put plainly: scintillation proximity assay (competition); 30 nM GST-WT ACK GBD immobilised on protein A SPA fluoromicrospheres via an anti-GST antibody, 30 nM [3H]GTP-Cdc42; increasing concentrations of GST-cleaved ACK variant; pure competition model, apparent Kd (Ki); both purified.

For Cdc42 Δ7 Q61L (from UniProt P60953), the binding result in test [1] was “binds”; with GST-ACK GBD S461A, “no binding”; in the test with GST-ACK GBD P457A, “no binding”; with GST-ACK GBD F462A, “no binding”; with GST-ACK GBD H467A it was “no binding”; in the test with GST-ACK GBD H464A/H467A, “no binding”. For the same molecule, the binding entry with GST-ACK GBD I454A, in the test with GST-ACK GBD H464A and with GST-ACK GBD Δ17 was “no binding” each time.
For GLSAQDISQPLQNSFIATGAGDSDPRHCWGFPDRIDELYLGN (domain or fragment, UniProt Q07912 448-489) [ACK GBD H464A/H467A, cleaved from GST], in the test with Cdc42 Δ7 Q61L, the binding entry is listed as “no binding”.
